PubChem BioAssay AID1259254, NCATS, 2017
Assay: 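Gene knock-downs that lead to re-replication, shown by excess G2 DNA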 (primary screen). Cell system: human HCT116 colorectal cancer cells. Reagents: single siRNA against human genes. Timing: 3 days. Read-out: 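Nuclei stained with Hoechst and imaged; cell-cycle phase assigned by DNA content; G2 share scaled per plate, non-targeting siRNA 0%, GMNN siRNA 100%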. Direction: G2 robust z-score and G2 cells, % of GMNN control: higher = more G2 cells, more excess DNA replication; raw share of cells in G2: higher = larger share of cells with G2 DNA content. Call rule: 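An siRNA counts as active if its G2 robust z-score lies at least 5 MADs above the screen median; here such calls match roughly 38% of GMNN control or more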.
The whole screen tested about 59,000 reagents; shown is a random part of them. Over the whole deposit, about 1,550 (2.6%) were called active. 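G2 share is only a proxy for re-replication; each gene was hit by three separate siRNAs, and active genes were retested.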 Raw values are not corrected between plates. Reagents against one gene are numbered here. The record does not give: the amount of reagent.

no.	gene	siRNA no.	G2 robust z-score	G2 cells, % of GMNN control	raw share of cells in G2 (%)	activity call
1	CEMIP (GeneID 57214)	1	0.00379	2.99	5.53	inactive
2	CEMIP (GeneID 57214)	2	-0.555	-0.935	4.01	inactive
3	CEMIP (GeneID 57214)	3	1.71	15	7.78	inactive
4	CPVL (GeneID 54504)	1	-0.0585	2.56	6.45	inactive
5	CPVL (GeneID 54504)	2	3.15	25.1	13.8	inactive
6	CPVL (GeneID 54504)	3	0.429	5.99	6.14	inactive
7	TMCO4 (GeneID 255104)	1	0.718	8.02	6.48	inactive
8	TMCO4 (GeneID 255104)	2	-0.0583	2.56	4.01	inactive
9	TMCO4 (GeneID 255104)	3	-0.366	0.394	3.32	inactive
10	TSPY1 (GeneID 7258)	1	-0.434	-0.0896	5.09	inactive
11	TSPY1 (GeneID 7258)	2	1.18	11.3	8.37	inactive
12	TSPY1 (GeneID 7258)	3	-0.524	-0.719	3.09	inactive
13	DEPDC4 (GeneID 120863)	1	1.4	12.8	9.22	inactive
14	DEPDC4 (GeneID 120863)	2	-1.02	-4.18	2.08	inactive
15	DEPDC4 (GeneID 120863)	3	0.386	5.68	3.48	inactive
16	DRAM2 (GeneID 128338)	1	-0.46	-0.269	4.07	inactive
17	DRAM2 (GeneID 128338)	2	-0.66	-1.68	2.57	inactive
18	DRAM2 (GeneID 128338)	3	0.247	4.7	4.28	inactive
19	MAGEB10 (GeneID 139422)	1	1.78	15.5	10	inactive
20	MAGEB10 (GeneID 139422)	2	0.303	5.1	4.72	inactive
21	MAGEB10 (GeneID 139422)	3	0.331	5.29	4.5	inactive
22	ARL9 (GeneID 132946)	1	-1.5	-7.57	1.93	inactive
23	ARL9 (GeneID 132946)	2	-1.17	-5.29	3.43	inactive
24	ARL9 (GeneID 132946)	3	0.213	4.46	6.58	inactive
25	SPACA5B (GeneID 729201)	1	1.45	13.2	8.24	inactive
26	SPACA5B (GeneID 729201)	2	-0.123	2.1	4.73	inactive
27	SPACA5B (GeneID 729201)	3	1.08	10.6	6.73	inactive
28	GBP1 (GeneID 2633)	1	2.08	17.6	9.93	inactive
29	GBP1 (GeneID 2633)	2	-0.32	0.714	5.53	inactive
30	GBP1 (GeneID 2633)	3	-1.13	-4.96	3.43	inactive
31	RPL19 (GeneID 6143)	1	4.18	32.4	18.8	inactive
32	RPL19 (GeneID 6143)	2	2.71	22.1	12.9	inactive
33	RPL19 (GeneID 6143)	3	1.86	16	9.15	inactive
34	RPS15A (GeneID 6210)	1	3.64	28.6	17.1	inactive
35	RPS15A (GeneID 6210)	2	4.35	33.6	17.5	inactive
36	RPS15A (GeneID 6210)	3	2.88	23.2	11.8	inactive
37	ITPK1 (GeneID 3705)	1	-0.0208	2.82	5.02	inactive
38	ITPK1 (GeneID 3705)	2	0.991	9.94	8.89	inactive
39	ITPK1 (GeneID 3705)	3	-0.728	-2.16	4.68	inactive
40	TYRO3 (GeneID 7301)	1	-0.734	-2.2	4.88	inactive
41	TYRO3 (GeneID 7301)	2	2.06	17.5	11.3	inactive
42	TYRO3 (GeneID 7301)	3	-0.482	-0.426	3.87	inactive
43	OR5AC2 (GeneID 81050)	1	-0.818	-2.78	3.29	inactive
44	OR5AC2 (GeneID 81050)	2	-0.417	0.0333	4.32	inactive
45	OR5AC2 (GeneID 81050)	3	-0.267	1.09	2.68	inactive
46	GNG7 (GeneID 2788)	1	-0.408	0.0959	3.69	inactive
47	GNG7 (GeneID 2788)	2	0.405	5.81	7.47	inactive
48	GNG7 (GeneID 2788)	3	0.535	6.73	7.68	inactive
49	GTPBP4 (GeneID 23560)	1	2.2	18.5	13.8	inactive
50	GTPBP4 (GeneID 23560)	2	1.98	16.9	9.82	inactive
51	GTPBP4 (GeneID 23560)	3	1.01	10.1	7.32	inactive
52	OR56A5 (GeneID 390084)	1	4.5	34.6	15.6	inactive
53	OR56A5 (GeneID 390084)	2	-0.00633	2.92	4.68	inactive
54	OR56A5 (GeneID 390084)	3	10.3	75.3	36.9	active
55	UCHL3 (GeneID 7347)	1	0.649	7.53	8.18	inactive
56	UCHL3 (GeneID 7347)	2	-0.334	0.617	5.13	inactive
57	UCHL3 (GeneID 7347)	3	0.517	6.6	6.37	inactive
58	ZC3H7B (GeneID 23264)	1	2.78	22.5	11.6	inactive
59	ZC3H7B (GeneID 23264)	2	0.0312	3.19	7.65	inactive
60	ZC3H7B (GeneID 23264)	3	6.25	47	19.9	active
61	STAMBP (GeneID 10617)	1	0.309	5.14	7.93	inactive
62	STAMBP (GeneID 10617)	2	-0.704	-1.99	3.2	inactive
63	STAMBP (GeneID 10617)	3	0.0632	3.41	7.82	inactive
64	MGAM (GeneID 8972)	1	-0.908	-3.42	4.06	inactive
65	MGAM (GeneID 8972)	2	-0.943	-3.66	2.87	inactive
66	MGAM (GeneID 8972)	3	-1.06	-4.49	3.1	inactive
67	TMEM169 (GeneID 92691)	1	-0.854	-3.04	2.79	inactive
68	TMEM169 (GeneID 92691)	2	-0.331	0.64	3.2	inactive
69	TMEM169 (GeneID 92691)	3	-0.211	1.48	3.4	inactive
70	NFIC (GeneID 4782)	1	-0.235	1.32	3.63	inactive
71	NFIC (GeneID 4782)	2	0.897	9.28	8.95	inactive
72	NFIC (GeneID 4782)	3	0.984	9.89	9.39	inactive
73	RERGL (GeneID 79785)	1	0.931	9.52	8.39	inactive
74	RERGL (GeneID 79785)	2	0.224	4.55	6.29	inactive
75	RERGL (GeneID 79785)	3	0.196	4.35	3.57	inactive
76	TAF1D (GeneID 79101)	1	1.33	12.3	9.95	inactive
77	TAF1D (GeneID 79101)	2	-0.533	-0.781	4.26	inactive
78	TAF1D (GeneID 79101)	3	1	10	5.34	inactive
79	MPPED1 (GeneID 758)	1	-0.822	-2.82	3.98	inactive
80	MPPED1 (GeneID 758)	2	-0.54	-0.833	3.78	inactive
81	MPPED1 (GeneID 758)	3	-0.418	0.0257	3.53	inactive
82	MPPED1 (GeneID 758)	4	0.239	4.65	5.31	inactive
83	MPPED1 (GeneID 758)	5	0.535	6.73	5.25	inactive
84	MPPED1 (GeneID 758)	6	0.064	3.42	4.89	inactive
85	SAV1 (GeneID 60485)	1	0.251	4.74	7.61	inactive
86	SAV1 (GeneID 60485)	2	-0.248	1.23	4.78	inactive
87	SAV1 (GeneID 60485)	3	-0.744	-2.26	3.4	inactive

A stretch taken from the entries so far, as a working copy:
no.	gene	siRNA no.	G2 robust z-score	G2 cells, % of GMNN control	raw share of cells in G2 (%)	activity call
15	DEPDC4 (GeneID 120863)	3	0.386	5.68	3.48	inactive
16	DRAM2 (GeneID 128338)	1	-0.46	-0.269	4.07	inactive
17	DRAM2 (GeneID 128338)	2	-0.66	-1.68	2.57	inactive
18	DRAM2 (GeneID 128338)	3	0.247	4.7	4.28	inactive
19	MAGEB10 (GeneID 139422)	1	1.78	15.5	10	inactive
20	MAGEB10 (GeneID 139422)	2	0.303	5.1	4.72	inactive
21	MAGEB10 (GeneID 139422)	3	0.331	5.29	4.5	inactive
